Experimental data reported in PubChem BioAssay AID624297 (National Center for Advancing Translational Sciences (NCATS), 2012).
The whole screen tested about 340,000 compounds, of which about 6,200 (1.8%) were called active. The inconclusive results got no clear call from the source; some entries with a clear call stand among them for comparison. The call rests on the fitted dose curve; in most records, active means well fitted activation curve with a large enough effect; inconclusive means small, poorly fitted or top-dose-only effect; inactive means no such curve, though single readings can be large or run the other way. A potency beside an inconclusive call is a rough fit, not a confirmed value.

Assay: A quantitative high throughput screen for small molecules that induce DNA re-replication in SW480 colon adenocarcinoma cells. Further: nearly all actives have a fitted effect of over 55% in size. On re-replication activation: % of control where 0% means no effect.
Conditions: Hoechst DNA content imaging, 48 h; re-replication activation: at 46.1 µM (top of the series) unless noted
Summary of the method: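 Treated cells incubate 48 hr (37 C, 5% CO2), are stained 40 min with Hoechst, and nuclear fluorescence is enumerated; a rise in nuclei with high DNA signal marks re-replication.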
Potency means the concentration at half of the fitted maximal effect.

With COc1ccccc1N1CCN(c2ccc([N+](=O)[O-])cc2Cl)CC1 as the compound, how does the Potency read?
The Potency was active: 18.4 µM.

With O=C(Nc1cc(NC(=O)c2ccccc2F)ccc1Cl)c1ccccc1 as the compound, how does the Potency read?
The Potency was inconclusive: 20.6 µM [activator, partial curve, poor fit].

With COc1ccccc1C(=O)N1CCC(C(=O)c2ccc(F)cc2)CC1 as the compound, how does the Potency read?
The Potency was “inactive”.

With CC1CCN(C(=O)CCc2nnc3ccc(NCc4ccco4)nn23)CC1 as the compound, how does the Potency read?
The Potency was inconclusive: 29.1 µM [activator, single point].

With Cc1ccc2nc(SCC(=O)N3CCN(c4ccccc4)CC3)[nH]c2c1 as the compound, how does the Potency read?
Its Potency is inconclusive: 29.1 µM [activator, single point].

With CCOC(=O)c1[nH]c(COC(=O)C2CC(=O)N(Cc3ccccc3)C2)c(C(=O)OCC)c1C (stereo not given) as the compound, how does the Potency read?
Its Potency is inconclusive: 29.1 µM [activator, single point].

Which Potency does the source give for COC(=O)c1ccc(NC(=S)NC2CCCCC2C)cc1 (stereo not given) here?
The Potency was inconclusive: 25.9 µM [activator, single point].

With COc1ccc(OC)c(NC(=O)Nc2cc(NC(=O)Nc3cc(OC)ccc3OC)c(C)nc2C)c1 as the compound, how does the Potency read?
The Potency was inconclusive: 18.4 µM [activator, single point].

Which Potency does the source give for Cc1ccc(S(=O)(=O)N2CCCCC2)cc1NC(=O)COC(=O)c1ccc2c(c1)OCO2 here?
Its Potency is inconclusive: 0.0046 µM [activator, full curve, poor fit].

For S=C(NN=Cc1ccc2c(c1)OCO2)NN=Cc1ccc2c(c1)OCO2, which Potency is on record?
Its Potency is inconclusive: 18.4 µM [activator, single point].

Which Potency does the source give for Cc1ccc2nc(N(CCCN(C)C)C(=O)c3ccc(S(=O)(=O)N4CCc5ccccc5C4)cc3)sc2c1 here?
Its Potency is inconclusive: 32.6 µM [activator, partial curve, poor fit].

For Nc1nc(Sc2ccc([N+](=O)[O-])cc2[N+](=O)[O-])n[nH]1, which Potency is on record?
Its Potency is inconclusive: 20.6 µM [activator, partial curve, poor fit].

For COc1ccc(COc2cc(-c3cccc(OC)c3)nc3ccc(NC(=O)c4ccc(Cl)cc4)cc23)cc1, which Potency is on record?
Its Potency is active: 23.1 µM.

With O=C(N/N=C/c1ccccc1OC(=O)c1ccc2c(c1)OCO2)c1cccc(F)c1 as the compound, how does the Potency read?
The Potency was inconclusive: 29.1 µM [activator, single point].

With Cc1ccc(N(CC(=O)N2CCN(c3ccccc3F)CC2)S(=O)(=O)c2c(C)noc2C)cc1 as the compound, how does the Potency read?
Its Potency is inconclusive: 1.84 µM [activator, partial curve, poor fit].

With Cc1ccccc1-n1nnnc1SCC(=O)Nc1ccc(N2CCN(C)CC2)cc1 as the compound, how does the Potency read?
The Potency was inconclusive: 0.164 µM [activator, full curve, poor fit].

For Cc1cc(Cl)ccc1OCCCC(=O)OCC(N)=O, which Potency is on record?
The Potency was “inactive”.

For CCCCn1c(SC(C)C(=O)c2ccc(OC)cc2)nc2cc(S(N)(=O)=O)ccc21 (stereo not given), which Potency is on record?
Its Potency is “inactive”.

For CCC(C(=O)N1CCOCC1)n1nc(C)c2sc3ccccc3c2c1=O (stereo not given), which Potency is on record?
The Potency was inconclusive: 0.0517 µM [activator, full curve, poor fit].

For O=C(c1ccco1)N1CCN(C(=O)c2ccc(COc3ccc4c(c3)CCC4)o2)CC1, which Potency is on record?
The Potency was “inactive”.

For CCCc1nc2c(=O)n(C)c(=O)nc-2n(C)n1, which Potency is on record?
Its Potency is active: 0.651 µM.

For Cc1cc(C)n2cc(CSc3nc4cc(Cl)ccc4o3)nc2n1, which Potency is on record?
Its Potency is “inactive”.

Which Potency does the source give for Cc1ccc(C(=O)CCS(=O)(=O)c2ccc(Cl)cc2)cc1 here?
The Potency was active: 9.2 µM.

Which Potency does the source give for Cc1ccc(Cl)cc1N1CCN(C(=O)C2(S(=O)(=O)c3ccc(Cl)cc3)CC2)CC1 here?
Its Potency is inconclusive: 18.4 µM [activator, single point].

With COc1ccc(C(NC(=O)C(C)C)c2ccc3cccnc3c2O)cc1 (stereo not given) as the compound, how does the Potency read?
The Potency was inconclusive: 1.84 µM [activator, full curve, poor fit].

With O=C(/C=C/c1ccc(O)c(O)c1)c1ccc(S(=O)(=O)N2CCCCCC2)cc1 as the compound, how does the Potency read?
The Potency was inconclusive: 18.4 µM [activator, single point].

For Cc1ccc2oc(-c3cccc(NC(=O)c4cc(-n5cnnc5)ccc4Cl)c3)nc2c1, which Potency is on record?
The Potency was inconclusive: 20.6 µM [activator, single point].

Which Potency does the source give for CCCNCC1COc2ccccc2O1 (stereo not given) here?
The Potency was “inactive”.

Which Potency does the source give for O=C1CSc2ccccc2N1 here?
Its Potency is inconclusive: 29.1 µM [activator, single point].

With O=c1c2cnn(-c3ccccc3)c2ncn1Cc1ccccc1 as the compound, how does the Potency read?
The Potency was “inactive”.

Which Potency does the source give for C=CCc1cc(Cl)ccc1OC(=O)Nc1cccc(Cl)c1 here?
Its Potency is inconclusive: 11.6 µM [activator, partial curve, poor fit].

With C=CCN1C(=O)CN=C1Nc1ccc(F)cc1 as the compound, how does the Potency read?
Its Potency is inconclusive: 11.6 µM [activator, single point].

With O=[N+]([O-])c1ccc(C2CN=C(Nc3ccccc3)S2)cc1 (stereo not given) as the compound, how does the Potency read?
The Potency was “inactive”.

For CCOC(=O)C1=C(C)OC(N)=C(C#N)C1c1cccs1 (stereo not given), which Potency is on record?
The Potency was “inactive”.

For O=C(Nc1ccc(F)c(Cl)c1)Nc1ccc(Cl)cn1, which Potency is on record?
Its Potency is inconclusive: 14.6 µM [activator, partial curve, poor fit].

With C[C@@H]1CN([C@@H](C)CO)C(=O)Cc2cc(NC(=O)Nc3cccc4ccccc34)ccc2O[C@@H]1CN(C)Cc1ccc(C(F)(F)F)cc1 as the compound, how does the Potency read?
The Potency was inconclusive: 29.1 µM [activator, single point].

For Cc1ccc(S(=O)(=O)N(C)C)cc1NC(=S)NC(C)CCC(C)C (stereo not given), which Potency is on record?
The Potency was inconclusive: 11.6 µM [activator, partial curve, poor fit].

For COc1ccc2cc(C#N)c(SCC(=O)N3CC(=O)Nc4ccccc43)nc2c1, which Potency is on record?
The Potency was inconclusive: 10.3 µM [activator, single point].

For COc1cccc(CCNC(=O)c2cccc(NC(=O)C3=C(C)OCCS3)c2)c1, which re-replication activation is on record?
The re-replication activation was inconclusive: 194% [activator].

For CC(C)CCN1CCN(CCCc2ccccc2)CC1CCO (stereo not given), which Potency is on record?
Its Potency is inconclusive: 14.6 µM [activator, single point].

With CC1CC(C)CN(CC(=O)c2c[nH]c3ccccc23)C1 (stereo not given) as the compound, how does the Potency read?
The Potency was “inactive”.

For COc1ccc(S(=O)(=O)N2CCCCC2)cc1NC(=O)CNc1ccc(F)cc1C, which Potency is on record?
The Potency was “inactive”.

For Cc1ccc(S(=O)(=O)c2ccc([N+](=O)[O-])o2)cc1, which Potency is on record?
Its Potency is inconclusive: 1.16 µM [activator, full curve, poor fit].

Which Potency does the source give for CCC1(c2ccccc2)NC(=O)N(CC(=O)Nc2cc(S(=O)(=O)N3CCCCC3)ccc2N(C)C)C1=O (stereo not given) here?
Its Potency is inconclusive: 5.8 µM [activator, single point].

With CN(Cc1ccccc1)C(=O)c1ccc(NC(=O)Cc2ccc(NC(=O)C3CCN(S(=O)(=O)c4cccc([N+](=O)[O-])c4)CC3)cc2)cc1 as the compound, how does the Potency read?
Its Potency is “inactive”.

For Cc1cc(F)ccc1S(=O)(=O)N1CCCOC1CNC(=O)C(=O)NCc1ccco1 (stereo not given), which Potency is on record?
Its Potency is inconclusive: 2.06 µM [activator, single point].

With COc1cccc(/C=C2\SC(=S)N(CCC(=O)Nc3ccc(O)cc3)C2=O)c1 as the compound, how does the Potency read?
The Potency was “inactive”.

For O=C(O)c1cc(-c2ccco2)nn1-c1ccc(Cl)cc1, which Potency is on record?
Its Potency is inconclusive: 5.17 µM [activator, single point].

Which Potency does the source give for CC(Oc1ccc(Cl)cc1Cl)C(=O)Nc1ccc(N2CCN(C)CC2)cc1 (stereo not given) here?
Its Potency is inconclusive: 29.1 µM [activator, single point].

With COc1ccccc1N(CC(=O)NCC1CCCO1)C(=O)Cn1nnc(-c2cccs2)n1 (stereo not given) as the compound, how does the Potency read?
Its Potency is “inactive”.

For Clc1ccc2c(N3CCCC3)ccnc2c1, which Potency is on record?
Its Potency is “inactive”.

Which Potency does the source give for COc1ccc(CCN(C)C(=S)Nc2ccc(SC(F)F)cc2)cc1OC here?
Its Potency is inconclusive: 29.1 µM [activator, single point].

For Cc1ccc2nc(-c3ccc(SCC(=O)Nc4nnc(C)s4)nc3)[nH]c2c1, which Potency is on record?
Its Potency is inconclusive: 18.4 µM [activator, single point].

With COc1ccccc1Nc1nnc(SCc2nnc(-c3cc(OC)c(OC)c(OC)c3)o2)s1 as the compound, how does the Potency read?
The Potency was inconclusive: 20.6 µM [activator, single point].

Which Potency does the source give for O=c1cc(CCl)nc(Cc2c(Cl)cccc2Cl)[nH]1 here?
Its Potency is inconclusive: 18.4 µM [activator, single point].

For Cc1sc2ncnc(N3CCC(C(=O)Nc4ccccc4C(C)(C)C)CC3)c2c1C, which Potency is on record?
Its Potency is inconclusive: 16.4 µM [activator, partial curve, poor fit].

For CCOCCCN(C(=O)c1ccco1)C(C(=O)NC1CCCC1)c1cccc(OC)c1OC (stereo not given), which Potency is on record?
Its Potency is inconclusive: 2.91 µM [activator, partial curve, poor fit].

Which Potency does the source give for COc1ccc(-c2cc(C(F)(F)F)nc(-n3ccnc3)n2)cc1 here?
The Potency was “inactive”.

For Oc1ccc(-c2nc3ncccn3c2Nc2ccc3c(c2)OCO3)cc1, which re-replication activation is on record?
Its re-replication activation is inactive: -9.41% [at 9.22 µM].

For Cc1ccc(NC(=O)N(O)C2CCCCC2C#N)cc1 (stereo not given), which Potency is on record?
The Potency was “inactive”.

With CCOCCCNc1nc2nc3ccc(C)cn3c(=O)c2cc1C(=O)NCC1CCCO1 (stereo not given) as the compound, how does the Potency read?
Its Potency is active: 9.2 µM.

Which Potency does the source give for Cc1ccccc1CN1[C@@H](Cc2ccccc2)COCCS1(=O)=O here?
Its Potency is “inactive”.

Which Potency does the source give for N#C/C(=C\c1cn(Cc2ccc(F)cc2)c2ccccc12)C(=O)NCc1ccco1 here?
Its Potency is inconclusive: 14.6 µM [activator, single point].

Which Potency does the source give for COc1ccc(CCNC(=O)CSCc2ccc(Cl)cc2)cc1OC here?
Its Potency is “inactive”.

Which Potency does the source give for NS(=O)(=O)c1ccc(NC(=O)C2CCCO2)cc1 (stereo not given) here?
Its Potency is inconclusive: 18.4 µM [activator, single point].

For O=[N+]([O-])c1cccc(N=Nc2ccc(O)cc2O)c1, which Potency is on record?
The Potency was active: 13 µM.

With CCCCCn1c(=O)c(-c2nc3ccccc3[nH]2)c(O)c2ccccc21 as the compound, how does the Potency read?
The Potency was active: 18.4 µM.

Which Potency does the source give for Cc1ccc(N2C(=O)C(Cl)=C(N3CCOCC3)C2=O)c(C)c1 here?
The Potency was “inactive”.

With CCCCN(C)CCCNC(=O)CN1C(=O)CSc2ccc(S(=O)(=O)N3CCOCC3)cc21 as the compound, how does the Potency read?
The Potency was inconclusive: 18.4 µM [activator, single point].

With CCNC1=C(Cl)C(=O)c2ccccc2C1=O as the compound, how does the Potency read?
Its Potency is inconclusive: 20.6 µM [activator, single point].
